In PMC12339391 one finds binding data, which are given here for 1 substance.

Protein sequences, listed by entry. Tags and fused reporters are not part of them. Lines headed by an entry give the natural chain unless they say otherwise; changes in a name come on top.
UniProt P27796: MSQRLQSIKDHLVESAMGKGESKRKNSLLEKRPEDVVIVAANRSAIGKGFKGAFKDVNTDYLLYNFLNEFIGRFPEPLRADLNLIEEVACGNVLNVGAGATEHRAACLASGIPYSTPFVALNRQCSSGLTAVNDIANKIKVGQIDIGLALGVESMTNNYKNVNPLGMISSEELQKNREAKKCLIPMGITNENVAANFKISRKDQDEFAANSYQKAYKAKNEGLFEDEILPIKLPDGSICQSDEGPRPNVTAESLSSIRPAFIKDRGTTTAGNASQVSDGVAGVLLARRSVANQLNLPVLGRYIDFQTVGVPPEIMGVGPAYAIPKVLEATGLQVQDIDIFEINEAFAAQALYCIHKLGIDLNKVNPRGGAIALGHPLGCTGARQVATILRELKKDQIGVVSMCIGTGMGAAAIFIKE

No constants are given. Whether binding was seen depends on the method and setting. Binding seen in cells or lysates may run through a third protein. These calls come from enrichment with a bait or labelling near it, and not all partners need be listed. Where a sequence is shown, tags or fusion partners need not be part of it.

In this assay the target is T1, Pex18-TPA (S. cerevisiae Pex18 fused C terminally with the TEV protease cleavage site and protein A tag) (S. cerevisiae) (UniProt P38855).
T1 sequence: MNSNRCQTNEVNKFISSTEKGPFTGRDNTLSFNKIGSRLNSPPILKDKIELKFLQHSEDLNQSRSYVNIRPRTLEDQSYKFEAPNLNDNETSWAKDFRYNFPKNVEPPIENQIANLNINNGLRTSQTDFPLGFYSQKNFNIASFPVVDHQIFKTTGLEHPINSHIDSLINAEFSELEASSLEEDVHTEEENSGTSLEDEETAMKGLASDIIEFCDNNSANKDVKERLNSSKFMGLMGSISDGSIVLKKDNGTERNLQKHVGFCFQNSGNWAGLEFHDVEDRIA
The assay is described as follows: affinity purification with mass spectrometry; Pex18-TPA (protein A tag) as bait; native complexes from soluble fractions of yeast grown in oleic acid medium, eluted with TEV protease; control: untagged wild type; label-free quantification, n = 3.

For the substance “Pot1 (S. cerevisiae ACAA1, PTS2-containing protein) (from UniProt P27796)”, the binding result is recorded as “binds”.
